PubChem BioAssay AID1259254, NCATS, 2017

Aim: 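Gene knock-downs that lead to re-replication, shown by excess G2 DNA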 (primary screen)
Cell system: human HCT116 colorectal cancer cells
Knock-down reagent: single siRNA against human genes
Duration: 3 days
Detection: 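Nuclei stained with Hoechst and imaged; cell-cycle phase assigned by DNA content; G2 share scaled per plate, non-targeting siRNA 0%, GMNN siRNA 100%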
Direction: G2 robust z-score and G2 cells, % of GMNN control: higher = more G2 cells, more excess DNA replication
Rule for the call: 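An siRNA counts as active if its G2 robust z-score lies at least 5 MADs above the screen median; here such calls match roughly 38% of GMNN control or more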
Here is a random part of about 59,000 reagents. Over the whole deposit, about 1,550 (2.6%) got an active call. 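G2 share is only a proxy for re-replication; each gene was hit by three separate siRNAs, and active genes were retested.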 Entries without a mark were called inactive. Reagents against one gene are numbered here. Further read-outs or replicates are left out here. The record does not give: the amount of reagent.

Against RXRB (retinoid X receptor beta) #1, the values are G2 robust z-score 0.0672; G2 cells, % of GMNN control 3.44.
After knock-down of RXRB (retinoid X receptor beta) #2, the record shows G2 robust z-score -0.618; G2 cells, % of GMNN control -1.38.
Knock-down of RXRB (retinoid X receptor beta) #3 came out at: G2 robust z-score 0.341; G2 cells, % of GMNN control 5.37.
After knock-down of FBXL20 (F-box and leucine rich repeat protein 20) #1, the screen gave G2 robust z-score 0.464; G2 cells, % of GMNN control 6.23.
Silencing of FBXL20 (F-box and leucine rich repeat protein 20) #2 came out at: G2 robust z-score -0.00255; G2 cells, % of GMNN control 2.95.
After knock-down of FBXL20 (F-box and leucine rich repeat protein 20) #3, the record shows G2 robust z-score 0.0967; G2 cells, % of GMNN control 3.65.
After knock-down of CDKN1A (cyclin dependent kinase inhibitor 1A) #1 the results were G2 robust z-score -0.572; G2 cells, % of GMNN control -1.06.
Depletion of CDKN1A (cyclin dependent kinase inhibitor 1A) #2 gave: G2 robust z-score 0.329; G2 cells, % of GMNN control 5.28.
With knock-down of CDKN1A (cyclin dependent kinase inhibitor 1A) #3, the record shows G2 robust z-score 1.58; G2 cells, % of GMNN control 14.1.
Against PBX2 (PBX homeobox 2) #1, the entry reads G2 robust z-score 2.12; G2 cells, % of GMNN control 17.9.
Against PBX2 (PBX homeobox 2) #2, the values are G2 robust z-score -0.777; G2 cells, % of GMNN control -2.5.
Depletion of PBX2 (PBX homeobox 2) #3 gave: G2 robust z-score -1.07; G2 cells, % of GMNN control -4.55.
After knock-down of BCAR1 (BCAR1 scaffold protein, Cas family member) #1, the screen gave G2 robust z-score 12.8 (active); G2 cells, % of GMNN control 93.3.
For BCAR1 (BCAR1 scaffold protein, Cas family member) #2 the deposit lists G2 robust z-score 4.31; G2 cells, % of GMNN control 33.3.
Silencing of BCAR1 (BCAR1 scaffold protein, Cas family member) #3 resulted in: G2 robust z-score 2.75; G2 cells, % of GMNN control 22.3.
Against CRYGA (crystallin gamma A) #1, the values are G2 robust z-score -0.72; G2 cells, % of GMNN control -2.1.
CRYGA (crystallin gamma A) #2 showed G2 robust z-score 5.39 (active); G2 cells, % of GMNN control 40.9.
Knock-down of CRYGA (crystallin gamma A) #3 resulted in: G2 robust z-score 3; G2 cells, % of GMNN control 24.1.
KLK5 (kallikrein related peptidase 5) #1 scored G2 robust z-score 2.46; G2 cells, % of GMNN control 20.3.
With knock-down of KLK5 (kallikrein related peptidase 5) #2, the screen gave G2 robust z-score 0.0108; G2 cells, % of GMNN control 3.04.
KLK5 (kallikrein related peptidase 5) #3 showed G2 robust z-score 0.547; G2 cells, % of GMNN control 6.81.
Silencing of ZNF444 (zinc finger protein 444) #1 resulted in: G2 robust z-score 0.353; G2 cells, % of GMNN control 5.45.
Silencing of ZNF444 (zinc finger protein 444) #2 gave: G2 robust z-score -1.47; G2 cells, % of GMNN control -7.35.
After knock-down of ZNF444 (zinc finger protein 444) #3 the results were G2 robust z-score 0.196; G2 cells, % of GMNN control 4.35.
For PCYT1B (phosphate cytidylyltransferase 1B, choline) #1, the values are G2 robust z-score -0.0302; G2 cells, % of GMNN control 2.76.
With knock-down of PCYT1B (phosphate cytidylyltransferase 1B, choline) #2, the screen gave G2 robust z-score 4.46; G2 cells, % of GMNN control 34.3.
For PCYT1B (phosphate cytidylyltransferase 1B, choline) #3, the entry reads G2 robust z-score 0.3; G2 cells, % of GMNN control 5.08.
C7orf57 (chromosome 7 open reading frame 57) #1 showed G2 robust z-score 0.0621; G2 cells, % of GMNN control 3.4.
With knock-down of C7orf57 (chromosome 7 open reading frame 57) #2, the record shows G2 robust z-score -0.425; G2 cells, % of GMNN control -0.0219.
After knock-down of C7orf57 (chromosome 7 open reading frame 57) #3 the results were G2 robust z-score -0.0372; G2 cells, % of GMNN control 2.71.

Taken from above:
For “G2 cells, % of GMNN control”, BCAR1 (BCAR1 scaffold protein, Cas family member) #1 has 93.3 (active)
Under “G2 cells, % of GMNN control”, C7orf57 (chromosome 7 open reading frame 57) #3 has 2.71
